The assay addresses endogenous c-MET (293T cells) (human (endogenous in 293T)) (UniProt P08581). Description: pull-down; endogenous c-MET immunoprecipitated from 293T cells on anti-MET antibody-bound Dynabeads Protein G; in vitro translated Flag-HGF incubated with the bead-bound c-MET for 4 h at 4 °C; western blot; only the target purified. On the technique in general: In western blotting, separated proteins are transferred to a membrane and probed.

Chains of the proteins cited; added tags and fusions are not shown. Lines headed by an entry give the natural chain unless they say otherwise; changes in a name come on top. A line that says so, or that is headed by a name, gives the form on record, which may keep a tag or linker. Residues count along the entry.
UniProt P08581, residues 25-1390: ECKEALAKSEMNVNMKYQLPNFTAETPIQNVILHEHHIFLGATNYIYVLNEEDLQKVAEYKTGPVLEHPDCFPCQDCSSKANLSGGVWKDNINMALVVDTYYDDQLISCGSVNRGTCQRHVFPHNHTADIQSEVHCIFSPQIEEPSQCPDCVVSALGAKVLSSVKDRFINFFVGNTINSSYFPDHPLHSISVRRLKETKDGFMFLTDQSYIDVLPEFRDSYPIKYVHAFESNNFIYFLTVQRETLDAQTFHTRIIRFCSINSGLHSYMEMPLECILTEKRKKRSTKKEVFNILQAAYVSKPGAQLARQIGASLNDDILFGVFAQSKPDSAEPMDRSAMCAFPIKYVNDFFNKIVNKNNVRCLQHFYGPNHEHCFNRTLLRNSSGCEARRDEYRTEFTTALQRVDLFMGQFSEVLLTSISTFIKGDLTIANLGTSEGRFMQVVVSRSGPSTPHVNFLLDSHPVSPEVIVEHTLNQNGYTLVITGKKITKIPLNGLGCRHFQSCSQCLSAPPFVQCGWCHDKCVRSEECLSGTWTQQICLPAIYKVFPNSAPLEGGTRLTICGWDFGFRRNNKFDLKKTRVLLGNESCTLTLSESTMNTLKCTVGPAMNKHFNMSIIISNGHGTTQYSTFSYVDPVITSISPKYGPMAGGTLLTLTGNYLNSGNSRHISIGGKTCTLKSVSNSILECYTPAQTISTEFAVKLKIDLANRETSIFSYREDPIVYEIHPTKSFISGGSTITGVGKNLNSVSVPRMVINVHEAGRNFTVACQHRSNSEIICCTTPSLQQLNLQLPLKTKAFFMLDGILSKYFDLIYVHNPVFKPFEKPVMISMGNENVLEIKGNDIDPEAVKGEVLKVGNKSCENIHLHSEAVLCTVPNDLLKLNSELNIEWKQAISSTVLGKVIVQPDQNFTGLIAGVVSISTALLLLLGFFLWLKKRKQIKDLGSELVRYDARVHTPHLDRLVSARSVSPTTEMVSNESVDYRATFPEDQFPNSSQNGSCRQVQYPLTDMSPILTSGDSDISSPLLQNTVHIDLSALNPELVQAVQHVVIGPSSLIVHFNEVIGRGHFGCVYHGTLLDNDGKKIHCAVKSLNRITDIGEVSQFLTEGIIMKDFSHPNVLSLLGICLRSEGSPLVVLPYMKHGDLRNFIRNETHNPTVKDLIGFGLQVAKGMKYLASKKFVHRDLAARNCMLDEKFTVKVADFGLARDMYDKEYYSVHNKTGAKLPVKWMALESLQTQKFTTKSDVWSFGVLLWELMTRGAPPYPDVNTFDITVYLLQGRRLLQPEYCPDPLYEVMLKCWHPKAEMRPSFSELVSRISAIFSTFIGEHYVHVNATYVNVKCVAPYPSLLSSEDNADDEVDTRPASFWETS
Flag-HGF 4Cys-4Ala (in vitro translated) (P14210-1, form named): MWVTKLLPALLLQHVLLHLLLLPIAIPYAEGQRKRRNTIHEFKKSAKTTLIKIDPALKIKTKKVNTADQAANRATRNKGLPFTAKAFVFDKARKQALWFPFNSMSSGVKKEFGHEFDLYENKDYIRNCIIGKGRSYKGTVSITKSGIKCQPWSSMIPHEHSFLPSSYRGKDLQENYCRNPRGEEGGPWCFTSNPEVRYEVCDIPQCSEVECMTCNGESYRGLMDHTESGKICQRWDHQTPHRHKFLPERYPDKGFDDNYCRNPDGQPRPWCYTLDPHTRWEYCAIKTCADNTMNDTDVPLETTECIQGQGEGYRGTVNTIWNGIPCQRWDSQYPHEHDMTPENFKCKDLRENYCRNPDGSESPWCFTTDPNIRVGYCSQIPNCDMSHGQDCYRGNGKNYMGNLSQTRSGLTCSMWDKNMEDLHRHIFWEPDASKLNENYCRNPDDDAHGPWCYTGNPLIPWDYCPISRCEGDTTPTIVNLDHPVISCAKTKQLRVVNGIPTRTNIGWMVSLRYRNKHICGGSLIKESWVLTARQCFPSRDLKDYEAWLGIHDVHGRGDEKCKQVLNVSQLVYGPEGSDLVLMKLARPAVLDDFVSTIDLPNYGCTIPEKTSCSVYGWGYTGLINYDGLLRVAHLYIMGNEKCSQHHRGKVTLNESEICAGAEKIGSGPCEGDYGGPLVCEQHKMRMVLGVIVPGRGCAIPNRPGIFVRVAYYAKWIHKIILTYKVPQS

These are yes or no findings as the source states them, for the method shown. In cells and extracts the contact can be indirect. Some binding calls cover weakened binding; strength is not graded here.

Regarding “Flag-HGF 4Cys-4Ala (in vitro translated) (from UniProt P14210-1 1-728) (ligand)”, the binding result is “no binding”.

Take “Flag-HGF WT (in vitro translated) (from UniProt P14210-1 1-728) (ligand)”: the binding entry was “binds”.

Source of the values: publication PMC9249922.
